Results: article PMC6162343
No constants are given. Whether binding was seen depends on the method and setting. Blank lines part the entries; values can stand above or below the binder they belong to.

Legend:
Experiment in all cases: SEC; gel filtration (Superdex S75 or Superdex 200) in 25 mM HEPES, pH 7.2, 150 mM NaCl, 2 mM DTT; elution volumes; both purified
[1] = molecular target: full-length human METTL16 (1-562 aa) (human) (UniProt Q86W50)
[2] = molecular target: METTL16-ΔN (40-291 aa) (human) (UniProt Q86W50)
[3] = molecular target: METTL16-core (1-291 aa) (human) (UniProt Q86W50)

binding [1]: no binding
B1: full-length human METTL16 (1-562 aa) (enzyme, UniProt Q86W50-1 1-562)
chain: MALSKSMHARNRYKDKPPDFAYLASKYPDFKQHVQINLNGRVSLNFKDPEAVRALTCTLLREDFGLSIDIPLERLIPTVPLRLNYIHWVEDLIGHQDSDKSTLRRGIDIGTGASCIYPLLGATLNGWYFLATEVDDMCFNYAKKNVEQNNLSDLIKVVKVPQKTLLMDALKEESEIIYDFCMCNPPFFANQLEAKGVNSRNPRRPPPSSVNTGGITEIMAEGGELEFVKRIIHDSLQLKKRLRWYSCMLGKKCSLAPLKEELRIQGVPKVTYTEFCQGRTMRWALAWSFYDDVTVPSPPSKRRKLEKPRKPITFVVLASVMKELSLKASPLRSETAEGIVVVTTWIEKILTDLKVQHKRVPCGKEEVSLFLTAIENSWIHLRRKKRERVRQLREVPRAPEDVIQALEEKKPTPKESGNSQELARGPQERTPCGPALREGEAAAVEGPCPSQESLSQEENPEPTEDERSEEKGGVEVLESCQGSSNGAQDQEASEQFGSPVAERGKRLPGVAGQYLFKCLINVKKEVDDALVEMHWVEGQNRDLMNQLCTYIRNQIFRLVAVN

binding [2]: no binding
B2: METTL16-ΔN (40-291 aa) (domain or fragment, UniProt Q86W50-1 40-291)
chain: GRVSLNFKDPEAVRALTCTLLREDFGLSIDIPLERLIPTVPLRLNYIHWVEDLIGHQDSDKSTLRRGIDIGTGASCIYPLLGATLNGWYFLATEVDDMCFNYAKKNVEQNNLSDLIKVVKVPQKTLLMDALKEESEIIYDFCMCNPPFFANQLEAKGVNSRNPRRPPPSSVNTGGITEIMAEGGELEFVKRIIHDSLQLKKRLRWYSCMLGKKCSLAPLKEELRIQGVPKVTYTEFCQGRTMRWALAWSFYD

binding [3]: no binding
B3: METTL16-core (1-291 aa) (domain or fragment, UniProt Q86W50-1 1-291)
chain: MALSKSMHARNRYKDKPPDFAYLASKYPDFKQHVQINLNGRVSLNFKDPEAVRALTCTLLREDFGLSIDIPLERLIPTVPLRLNYIHWVEDLIGHQDSDKSTLRRGIDIGTGASCIYPLLGATLNGWYFLATEVDDMCFNYAKKNVEQNNLSDLIKVVKVPQKTLLMDALKEESEIIYDFCMCNPPFFANQLEAKGVNSRNPRRPPPSSVNTGGITEIMAEGGELEFVKRIIHDSLQLKKRLRWYSCMLGKKCSLAPLKEELRIQGVPKVTYTEFCQGRTMRWALAWSFYD
